Assay results from the supplement of paper PMC6411743.
± gives the standard deviation of the averaged measurements. Only a part is listed here, and it is no random draw.

Protein sequences, listed by entry. Tags and fused reporters are not part of them. Lines headed by an entry give the natural chain unless they say otherwise; changes in a name come on top.
UniProt P26885: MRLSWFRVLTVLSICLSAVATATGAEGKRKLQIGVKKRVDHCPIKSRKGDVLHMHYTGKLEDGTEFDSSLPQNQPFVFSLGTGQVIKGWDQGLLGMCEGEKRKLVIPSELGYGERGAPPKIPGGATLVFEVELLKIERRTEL
UniProt P19634, whole entry: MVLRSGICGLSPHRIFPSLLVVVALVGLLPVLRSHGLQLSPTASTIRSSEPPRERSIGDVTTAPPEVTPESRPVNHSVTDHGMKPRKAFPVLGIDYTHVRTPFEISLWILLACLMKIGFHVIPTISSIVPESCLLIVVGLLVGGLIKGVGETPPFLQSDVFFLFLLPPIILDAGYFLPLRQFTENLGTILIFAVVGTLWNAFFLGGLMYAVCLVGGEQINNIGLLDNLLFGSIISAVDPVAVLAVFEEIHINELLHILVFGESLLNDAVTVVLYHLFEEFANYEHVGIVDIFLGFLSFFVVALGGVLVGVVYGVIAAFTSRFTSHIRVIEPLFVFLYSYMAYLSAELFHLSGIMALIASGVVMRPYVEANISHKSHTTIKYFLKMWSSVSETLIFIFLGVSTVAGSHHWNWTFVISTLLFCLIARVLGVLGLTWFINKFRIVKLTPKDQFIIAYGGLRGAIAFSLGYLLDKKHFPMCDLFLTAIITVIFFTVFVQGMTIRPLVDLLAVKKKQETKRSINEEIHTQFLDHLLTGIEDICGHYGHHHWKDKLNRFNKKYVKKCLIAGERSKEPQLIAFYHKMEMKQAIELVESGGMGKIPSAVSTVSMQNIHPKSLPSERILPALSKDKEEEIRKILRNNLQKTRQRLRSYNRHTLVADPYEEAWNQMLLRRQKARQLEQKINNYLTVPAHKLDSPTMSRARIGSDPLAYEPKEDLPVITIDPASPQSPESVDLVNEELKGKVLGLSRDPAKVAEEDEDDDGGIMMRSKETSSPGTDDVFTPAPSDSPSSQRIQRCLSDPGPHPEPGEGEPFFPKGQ
UniProt P32942: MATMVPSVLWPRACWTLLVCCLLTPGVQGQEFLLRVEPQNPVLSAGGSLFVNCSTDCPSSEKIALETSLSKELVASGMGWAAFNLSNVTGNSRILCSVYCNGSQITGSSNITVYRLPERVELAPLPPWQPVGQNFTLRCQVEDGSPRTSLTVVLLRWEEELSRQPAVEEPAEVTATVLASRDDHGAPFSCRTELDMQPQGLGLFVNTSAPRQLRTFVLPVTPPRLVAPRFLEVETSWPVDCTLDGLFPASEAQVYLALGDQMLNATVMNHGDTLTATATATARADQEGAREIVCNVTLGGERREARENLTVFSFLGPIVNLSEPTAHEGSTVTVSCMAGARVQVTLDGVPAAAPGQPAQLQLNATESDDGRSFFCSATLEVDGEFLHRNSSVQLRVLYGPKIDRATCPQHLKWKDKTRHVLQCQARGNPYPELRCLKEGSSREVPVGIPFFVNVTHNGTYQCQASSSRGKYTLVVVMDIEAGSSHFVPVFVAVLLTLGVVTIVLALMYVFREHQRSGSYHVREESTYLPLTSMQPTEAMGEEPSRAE
UniProt P20618: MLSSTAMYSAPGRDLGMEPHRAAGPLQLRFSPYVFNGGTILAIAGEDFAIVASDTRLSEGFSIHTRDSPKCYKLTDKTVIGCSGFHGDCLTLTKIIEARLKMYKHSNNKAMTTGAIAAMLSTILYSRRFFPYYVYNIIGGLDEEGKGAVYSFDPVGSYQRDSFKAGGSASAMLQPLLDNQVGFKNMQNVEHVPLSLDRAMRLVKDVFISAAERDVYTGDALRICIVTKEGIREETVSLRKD
UniProt P28838: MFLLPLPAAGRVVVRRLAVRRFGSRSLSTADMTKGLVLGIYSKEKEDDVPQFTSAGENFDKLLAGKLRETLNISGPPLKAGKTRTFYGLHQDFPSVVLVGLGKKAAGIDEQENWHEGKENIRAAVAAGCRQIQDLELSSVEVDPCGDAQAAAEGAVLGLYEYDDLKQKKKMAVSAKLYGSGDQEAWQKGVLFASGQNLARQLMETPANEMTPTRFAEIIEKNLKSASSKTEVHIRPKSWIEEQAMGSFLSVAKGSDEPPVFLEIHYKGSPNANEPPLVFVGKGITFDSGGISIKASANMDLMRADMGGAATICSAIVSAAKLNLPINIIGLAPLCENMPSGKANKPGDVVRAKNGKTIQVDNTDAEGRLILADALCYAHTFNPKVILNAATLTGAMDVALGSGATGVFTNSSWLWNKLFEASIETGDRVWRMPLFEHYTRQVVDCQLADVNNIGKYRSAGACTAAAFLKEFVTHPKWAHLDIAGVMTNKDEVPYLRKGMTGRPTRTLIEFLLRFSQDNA
UniProt P35610: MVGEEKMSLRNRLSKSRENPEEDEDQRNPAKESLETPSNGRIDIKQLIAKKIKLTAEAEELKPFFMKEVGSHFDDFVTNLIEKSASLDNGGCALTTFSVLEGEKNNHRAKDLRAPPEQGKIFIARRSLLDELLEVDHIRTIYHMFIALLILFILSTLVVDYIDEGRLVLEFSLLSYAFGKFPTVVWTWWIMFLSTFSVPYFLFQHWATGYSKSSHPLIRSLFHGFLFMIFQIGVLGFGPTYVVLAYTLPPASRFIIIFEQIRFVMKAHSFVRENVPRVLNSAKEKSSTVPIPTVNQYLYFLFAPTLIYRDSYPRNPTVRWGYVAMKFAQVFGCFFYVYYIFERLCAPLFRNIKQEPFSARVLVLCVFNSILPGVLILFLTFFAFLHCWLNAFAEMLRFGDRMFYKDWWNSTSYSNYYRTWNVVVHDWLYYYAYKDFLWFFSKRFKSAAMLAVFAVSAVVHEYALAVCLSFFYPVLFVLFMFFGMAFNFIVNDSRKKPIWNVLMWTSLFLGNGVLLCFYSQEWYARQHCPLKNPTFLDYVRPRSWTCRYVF
UniProt P35240: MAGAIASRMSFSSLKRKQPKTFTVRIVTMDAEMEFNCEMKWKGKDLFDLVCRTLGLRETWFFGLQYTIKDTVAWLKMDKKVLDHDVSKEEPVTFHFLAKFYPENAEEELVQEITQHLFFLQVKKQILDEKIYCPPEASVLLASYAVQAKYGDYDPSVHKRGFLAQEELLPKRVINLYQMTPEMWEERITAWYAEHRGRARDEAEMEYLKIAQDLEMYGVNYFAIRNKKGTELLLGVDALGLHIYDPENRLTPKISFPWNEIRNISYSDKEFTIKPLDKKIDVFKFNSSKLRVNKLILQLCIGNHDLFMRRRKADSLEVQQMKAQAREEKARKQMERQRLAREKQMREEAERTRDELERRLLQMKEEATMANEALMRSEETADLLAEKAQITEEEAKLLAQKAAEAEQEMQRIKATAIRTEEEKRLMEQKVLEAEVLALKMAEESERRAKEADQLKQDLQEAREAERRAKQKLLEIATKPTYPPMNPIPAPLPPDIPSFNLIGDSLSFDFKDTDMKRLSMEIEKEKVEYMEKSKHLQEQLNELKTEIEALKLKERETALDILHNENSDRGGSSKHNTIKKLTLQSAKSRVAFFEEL
UniProt P28066: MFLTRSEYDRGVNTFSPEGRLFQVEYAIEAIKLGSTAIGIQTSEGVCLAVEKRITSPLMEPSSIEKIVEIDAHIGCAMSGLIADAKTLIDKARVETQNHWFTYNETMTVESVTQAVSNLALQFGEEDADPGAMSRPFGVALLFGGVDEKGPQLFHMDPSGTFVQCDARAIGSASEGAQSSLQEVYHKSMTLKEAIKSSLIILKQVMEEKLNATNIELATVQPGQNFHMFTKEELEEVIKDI
UniProt P28908: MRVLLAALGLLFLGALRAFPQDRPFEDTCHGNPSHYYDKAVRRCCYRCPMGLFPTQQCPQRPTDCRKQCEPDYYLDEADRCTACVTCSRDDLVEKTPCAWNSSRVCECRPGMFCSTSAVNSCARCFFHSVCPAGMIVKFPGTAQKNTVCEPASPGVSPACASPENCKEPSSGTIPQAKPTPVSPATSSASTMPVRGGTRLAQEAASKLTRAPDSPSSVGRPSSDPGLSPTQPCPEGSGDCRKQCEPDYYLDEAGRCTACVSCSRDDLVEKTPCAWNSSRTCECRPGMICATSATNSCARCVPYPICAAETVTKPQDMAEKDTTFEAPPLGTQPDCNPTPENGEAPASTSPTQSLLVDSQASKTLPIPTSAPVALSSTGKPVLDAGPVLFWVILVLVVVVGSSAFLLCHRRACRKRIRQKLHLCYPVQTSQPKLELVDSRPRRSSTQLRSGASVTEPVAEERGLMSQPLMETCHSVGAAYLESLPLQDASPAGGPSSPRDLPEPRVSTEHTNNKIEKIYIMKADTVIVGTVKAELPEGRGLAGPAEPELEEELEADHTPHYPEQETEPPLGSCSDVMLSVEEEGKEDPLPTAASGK
UniProt P30049: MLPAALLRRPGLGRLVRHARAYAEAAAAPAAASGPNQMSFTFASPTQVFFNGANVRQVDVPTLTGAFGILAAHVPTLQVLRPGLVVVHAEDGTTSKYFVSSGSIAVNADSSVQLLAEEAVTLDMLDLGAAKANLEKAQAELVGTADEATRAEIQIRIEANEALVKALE
UniProt P23497: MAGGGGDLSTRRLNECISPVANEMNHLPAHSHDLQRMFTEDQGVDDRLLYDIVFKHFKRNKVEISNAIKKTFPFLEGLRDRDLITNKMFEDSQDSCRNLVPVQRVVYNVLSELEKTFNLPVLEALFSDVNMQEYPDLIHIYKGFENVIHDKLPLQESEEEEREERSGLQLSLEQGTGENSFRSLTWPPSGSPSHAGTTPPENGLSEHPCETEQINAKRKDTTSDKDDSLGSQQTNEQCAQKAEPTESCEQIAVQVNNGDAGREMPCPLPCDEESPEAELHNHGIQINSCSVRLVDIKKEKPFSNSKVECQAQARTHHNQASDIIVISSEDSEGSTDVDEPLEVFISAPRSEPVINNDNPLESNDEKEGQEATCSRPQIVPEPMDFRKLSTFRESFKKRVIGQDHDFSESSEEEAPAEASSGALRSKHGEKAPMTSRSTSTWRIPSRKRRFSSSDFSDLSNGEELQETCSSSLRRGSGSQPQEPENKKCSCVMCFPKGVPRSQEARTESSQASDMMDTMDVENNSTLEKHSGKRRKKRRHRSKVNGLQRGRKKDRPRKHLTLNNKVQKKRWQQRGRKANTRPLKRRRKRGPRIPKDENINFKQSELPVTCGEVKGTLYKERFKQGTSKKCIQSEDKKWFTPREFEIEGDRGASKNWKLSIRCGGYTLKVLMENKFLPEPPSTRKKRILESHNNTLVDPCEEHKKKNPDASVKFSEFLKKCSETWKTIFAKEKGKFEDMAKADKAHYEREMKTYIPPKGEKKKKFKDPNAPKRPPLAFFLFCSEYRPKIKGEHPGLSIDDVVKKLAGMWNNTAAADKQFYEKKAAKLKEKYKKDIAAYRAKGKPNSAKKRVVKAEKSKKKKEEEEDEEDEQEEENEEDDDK
UniProt P17050: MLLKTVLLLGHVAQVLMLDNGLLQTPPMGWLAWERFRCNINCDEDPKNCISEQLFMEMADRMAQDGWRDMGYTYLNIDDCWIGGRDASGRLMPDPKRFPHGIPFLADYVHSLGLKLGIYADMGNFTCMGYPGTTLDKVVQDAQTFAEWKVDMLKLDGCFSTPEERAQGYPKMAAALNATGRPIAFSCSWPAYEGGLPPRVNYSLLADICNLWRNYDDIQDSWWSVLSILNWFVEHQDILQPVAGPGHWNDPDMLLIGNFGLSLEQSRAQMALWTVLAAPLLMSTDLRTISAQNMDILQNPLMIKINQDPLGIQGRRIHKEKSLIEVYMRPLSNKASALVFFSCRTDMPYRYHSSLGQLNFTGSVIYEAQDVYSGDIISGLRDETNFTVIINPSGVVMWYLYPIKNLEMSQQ
UniProt P36551: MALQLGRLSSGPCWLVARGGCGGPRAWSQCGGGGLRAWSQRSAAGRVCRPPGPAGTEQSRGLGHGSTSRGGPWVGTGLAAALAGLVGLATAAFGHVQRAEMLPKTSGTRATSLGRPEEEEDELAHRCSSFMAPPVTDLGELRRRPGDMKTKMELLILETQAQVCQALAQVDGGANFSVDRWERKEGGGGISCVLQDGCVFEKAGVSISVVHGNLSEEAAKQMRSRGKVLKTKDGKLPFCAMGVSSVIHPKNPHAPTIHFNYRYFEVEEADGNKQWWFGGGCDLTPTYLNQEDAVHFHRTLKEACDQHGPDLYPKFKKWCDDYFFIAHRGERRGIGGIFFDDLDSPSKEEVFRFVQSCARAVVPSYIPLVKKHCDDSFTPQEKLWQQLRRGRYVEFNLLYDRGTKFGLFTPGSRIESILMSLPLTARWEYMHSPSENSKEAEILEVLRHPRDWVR
UniProt P17706: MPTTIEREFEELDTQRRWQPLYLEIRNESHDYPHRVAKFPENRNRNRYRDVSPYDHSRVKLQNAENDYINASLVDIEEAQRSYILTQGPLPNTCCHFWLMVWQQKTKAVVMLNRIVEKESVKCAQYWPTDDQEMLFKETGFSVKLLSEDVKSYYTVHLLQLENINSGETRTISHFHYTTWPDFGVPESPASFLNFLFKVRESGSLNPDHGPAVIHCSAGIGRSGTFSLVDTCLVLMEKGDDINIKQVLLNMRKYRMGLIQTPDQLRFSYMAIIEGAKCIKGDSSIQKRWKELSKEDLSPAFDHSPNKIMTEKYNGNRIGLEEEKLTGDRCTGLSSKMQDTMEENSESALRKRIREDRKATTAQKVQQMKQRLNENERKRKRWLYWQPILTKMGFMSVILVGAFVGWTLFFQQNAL

Compound: Nc1ncnc2c1ncn2[C@@H]1O[C@H](COP(=O)(O)OP(=O)(O)NP(=O)(O)O)[C@@H](O)[C@H]1O [adenylyl imidodiphosphate]
Assay: NP40-soluble protein abundance relative to vehicle (solubility fold change) (ratio); higher = more soluble protein in presence of AMP-PNP
In short: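 In three independent experiments, Jurkat crude lysate made by Dounce homogenisation was treated for 10 min at room temperature and then 3 min at 37 °C with eight concentrations ranging from 0.1 to 10 mM. It was then solubilised with 0.8% NP40 plus benzonase for 60 min at 4 °C and ultracentrifuged. The supernatant was TMT-labelled for LC-MS/MS, and each value is the fold change against the detergent-processed vehicle for the same replicate, using vsn-normalised intensities.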

Target	NP40-soluble protein abundance (concentration: 1mM)	NP40-soluble protein abundance (concentration: 2mM)	NP40-soluble protein abundance (concentration: 4mM)	NP40-soluble protein abundance (concentration: 6mM)	NP40-soluble protein abundance (concentration: 8mM)	NP40-soluble protein abundance (concentration: 10mM)
UniProt P18754-2|P18754	1.05 ± 0.025	1.05 ± 0.019	1.054 ± 0.0037	1.07 ± 0.018	1.06 ± 0.013	1.09 ± 0.019
UniProt P34897 and related entries	0.972 ± 0.033	0.94 ± 0.012	0.994 ± 0.043	1.04 ± 0.059	1.06 ± 0.037	1.03 ± 0.029
POLR2C (UniProt P19387)	0.976 ± 0.022	0.95 ± 0.058	0.941 ± 0.042	0.905 ± 0.062	0.882 ± 0.04	0.908 ± 0.065
RPL13 (UniProt P26373)	0.994 ± 0.11	0.971 ± 0.054	0.94 ± 0.13	0.916 ± 0.13	0.789 ± 0.054	0.958 ± 0.21
FKBP2 (UniProt P26885)	0.999 ± 0.02	1.04 ± 0.045	0.966 ± 0.019	0.9573 ± 0.0058	0.96 ± 0.011	0.945 ± 0.031
SLC9A1 (UniProt P19634)	0.985 ± 0.05	0.994 ± 0.01	0.989 ± 0.046	1 ± 0.038	0.995 ± 0.023	0.988 ± 0.04
UniProt P28907	0.995 ± 0.015	1.06 ± 0.11	0.98 ± 0.034	1.01 ± 0.037	0.975 ± 0.019	0.978 ± 0.069
UniProt P20701 and related entries	1 ± 0.025	1.03 ± 0.096	1.04 ± 0.04	1.06 ± 0.072	1.03 ± 0.062	1.09 ± 0.076
TFE3 (UniProt P19532)	1.05 ± 0.048	1.05 ± 0.064	1.03 ± 0.021	1.05 ± 0.09	1.03 ± 0.039	1.05 ± 0.035
GRK5 (UniProt P34947)	1.02 ± 0.018	1.02 ± 0.068	1.04 ± 0.027	1.01 ± 0.025	1.03 ± 0.045	1.03 ± 0.032
ICAM3 (UniProt P32942)	1.03 ± 0.025	1.09 ± 0.082	1.02 ± 0.035	1.03 ± 0.051	0.969 ± 0.031	1.02 ± 0.085
PSMB1 (UniProt P20618)	0.959 ± 0.032	0.934 ± 0.059	0.927 ± 0.079	0.906 ± 0.094	0.904 ± 0.086	0.873 ± 0.1
UniProt P22001	0.979 ± 0.012	0.986 ± 0.021	1.01 ± 0.027	0.997 ± 0.039	0.99 ± 0.046	0.976 ± 0.013
UniProt P28838 and related entries	0.979 ± 0.012	0.931 ± 0.075	0.954 ± 0.021	0.932 ± 0.027	0.929 ± 0.021	0.92 ± 0.031
UniProt P29144 and related entries	0.95 ± 0.11	0.889 ± 0.12	0.917 ± 0.12	0.889 ± 0.11	0.925 ± 0.12	0.891 ± 0.14
ECHS1 (UniProt P30084)	0.9976 ± 0.0068	0.9885 ± 0.006	0.955 ± 0.029	0.994 ± 0.02	0.963 ± 0.017	0.961 ± 0.015
MCM7 (UniProt P33993)	0.944 ± 0.017	0.867 ± 0.089	0.931 ± 0.043	0.922 ± 0.017	0.949 ± 0.025	0.909 ± 0.067
SOAT1 (UniProt P35610)	0.992 ± 0.049	0.956 ± 0.13	0.948 ± 0.075	0.912 ± 0.027	0.918 ± 0.033	0.902 ± 0.038
MAN1A1 (UniProt P33908)	0.946 ± 0.013	0.968 ± 0.049	0.976 ± 0.025	0.943 ± 0.03	0.97 ± 0.039	0.929 ± 0.021
UniProt P31629	0.965 ± 0.038	1.06 ± 0.058	0.988 ± 0.01	1.01 ± 0.023	0.954 ± 0.026	0.977 ± 0.033

Target	NP40-soluble protein abundance (concentration: 1mM)	NP40-soluble protein abundance (concentration: 2mM)	NP40-soluble protein abundance (concentration: 4mM)	NP40-soluble protein abundance (concentration: 6mM)	NP40-soluble protein abundance (concentration: 8mM)	NP40-soluble protein abundance (concentration: 10mM)
HMGCL (UniProt P35914)	0.963 ± 0.013	1 ± 0.047	0.966 ± 0.029	0.97571 ± 0.00013	0.964 ± 0.03	0.983 ± 0.017
ERP29 (UniProt P30040)	0.989 ± 0.013	1.01 ± 0.03	0.987 ± 0.027	1 ± 0.059	1.02 ± 0.058	0.981 ± 0.077
EEF1G (UniProt P26641)	0.967 ± 0.038	0.917 ± 0.078	0.894 ± 0.028	0.91 ± 0.078	0.888 ± 0.051	0.88 ± 0.08
UniProt P21359 and related entries	0.979 ± 0.014	0.951 ± 0.034	0.9712 ± 0.0078	0.955 ± 0.025	0.954 ± 0.029	0.928 ± 0.046
UniProt P30044 and related entries	0.994 ± 0.015	1.02 ± 0.048	0.985 ± 0.019	1.01 ± 0.034	0.999 ± 0.021	1.01 ± 0.043
RFC2 (UniProt P35250)	1.06 ± 0.047	1.03 ± 0.08	1.11 ± 0.058	1.17 ± 0.018	1.2 ± 0.056	1.23 ± 0.088
UniProt P35240 and related entries	1.01 ± 0.023	1.01 ± 0.049	1.048 ± 0.0075	1 ± 0.018	0.985 ± 0.03	0.992 ± 0.025
RPS3 (UniProt P23396)	0.937 ± 0.036	0.867 ± 0.032	0.904 ± 0.099	0.878 ± 0.014	0.857 ± 0.057	0.885 ± 0.11
UniProt P28066 and related entries	1 ± 0.041	0.997 ± 0.023	0.968 ± 0.051	0.952 ± 0.081	0.925 ± 0.076	0.917 ± 0.11
FEN1 (UniProt P39748)	1.02 ± 0.018	1.04 ± 0.081	1.01 ± 0.07	1.04 ± 0.022	0.991 ± 0.053	1.04 ± 0.059
HMGB2 (UniProt P26583)	1.06 ± 0.14	1.23 ± 0.093	1.04 ± 0.12	1.12 ± 0.073	1.2 ± 0.021	1.19 ± 0.054
UniProt P28908 and related entries	0.998 ± 0.018	1.03 ± 0.071	0.988 ± 0.025	0.991 ± 0.036	0.9962 ± 0.004	1 ± 0.013
HNRNPA2B1 (UniProt P22626)	1.03 ± 0.16	1.01 ± 0.089	0.991 ± 0.23	1.03 ± 0.21	1.08 ± 0.17	1.03 ± 0.13
CAPG (UniProt P40121)	1.04 ± 0.038	1.06 ± 0.054	0.993 ± 0.032	0.983 ± 0.039	0.944 ± 0.04	0.954 ± 0.042
GGT1 (UniProt P19440)	0.988 ± 0.012	0.995 ± 0.03	1.01 ± 0.036	0.976 ± 0.013	0.958 ± 0.028	0.981 ± 0.026
CSRP1 (UniProt P21291)	1 ± 0.03	0.992 ± 0.029	0.981 ± 0.013	1.04 ± 0.044	1.02 ± 0.038	1.03 ± 0.048
UniProt P32121 and related entries	1.05 ± 0.017	1.06 ± 0.017	1.086 ± 0.0093	1.13 ± 0.061	1.14 ± 0.026	1.16 ± 0.047
UniProt P24539 and related entries	0.929 ± 0.076	0.962 ± 0.056	0.886 ± 0.1	0.911 ± 0.059	0.944 ± 0.05	0.808 ± 0.085
CCNA2 (UniProt P20248)	1.03 ± 0.042	1.07 ± 0.057	1.01 ± 0.033	1.01 ± 0.028	0.975 ± 0.014	1.04 ± 0.071
UniProt P28065 and related entries	0.967 ± 0.022	0.975 ± 0.042	0.959 ± 0.031	0.955 ± 0.031	0.949 ± 0.033	0.968 ± 0.031

Target	NP40-soluble protein abundance (concentration: 1mM)	NP40-soluble protein abundance (concentration: 2mM)	NP40-soluble protein abundance (concentration: 4mM)	NP40-soluble protein abundance (concentration: 6mM)	NP40-soluble protein abundance (concentration: 8mM)	NP40-soluble protein abundance (concentration: 10mM)
MYH9 (UniProt P35579)	1.06 ± 0.049	1.09 ± 0.04	1.04 ± 0.061	1.03 ± 0.063	1 ± 0.051	1.03 ± 0.077
ACO1 (UniProt P21399)	0.9805 ± 0.0096	0.944 ± 0.012	0.957 ± 0.014	0.968 ± 0.027	0.976 ± 0.027	0.931 ± 0.038
RAB3A (UniProt P20336)	1.03 ± 0.041	1.02 ± 0.014	1.04 ± 0.036	1 ± 0.012	1 ± 0.016	1.02 ± 0.02
UniProt P17542 and related entries	0.988 ± 0.032	1.02 ± 0.043	0.958 ± 0.033	0.973 ± 0.023	0.949 ± 0.016	0.954 ± 0.031
UniProt P18859 and related entries	0.948 ± 0.053	0.899 ± 0.032	0.867 ± 0.062	0.834 ± 0.05	0.825 ± 0.063	0.857 ± 0.026
ABCC1 (UniProt P33527)	0.985 ± 0.011	0.968 ± 0.023	0.983 ± 0.011	0.976 ± 0.013	0.965 ± 0.027	0.984 ± 0.031
UniProt P25788 and related entries	0.885 ± 0.036	0.857 ± 0.032	0.852 ± 0.074	0.925 ± 0.045	0.904 ± 0.071	0.894 ± 0.11
MYH10 (UniProt P35580)	1.16 ± 0.11	1.24 ± 0.11	1.18 ± 0.15	1.17 ± 0.15	1.12 ± 0.15	1.17 ± 0.19
UniProt P35606 and related entries	1.01 ± 0.014	0.94 ± 0.084	0.975 ± 0.021	0.961 ± 0.028	0.99 ± 0.032	0.936 ± 0.044
UniProt P29401 and related entries	0.9787 ± 0.0092	0.941 ± 0.046	0.943 ± 0.018	0.978 ± 0.022	0.966 ± 0.027	0.957 ± 0.023
UniProt P30049	0.97 ± 0.052	0.965 ± 0.022	0.912 ± 0.058	0.907 ± 0.047	0.895 ± 0.048	0.864 ± 0.049
SP100 (UniProt P23497)	0.997 ± 0.029	1.03 ± 0.059	0.996 ± 0.039	0.968 ± 0.041	0.942 ± 0.024	0.962 ± 0.049
RPS19 (UniProt P39019)	0.971 ± 0.045	0.958 ± 0.069	0.885 ± 0.077	0.829 ± 0.056	0.769 ± 0.055	0.852 ± 0.11
TUBG1 (UniProt P23258)	0.994 ± 0.097	0.969 ± 0.13	0.998 ± 0.095	1.03 ± 0.12	1.02 ± 0.11	1.07 ± 0.18
NAGA (UniProt P17050)	1 ± 0.056	1.02 ± 0.059	1.03 ± 0.052	0.985 ± 0.027	0.976 ± 0.038	0.993 ± 0.068
UniProt P25325 and related entries	1.05 ± 0.04	1.03 ± 0.067	0.948 ± 0.042	0.975 ± 0.049	0.914 ± 0.015	0.97 ± 0.026
CPOX (UniProt P36551)	0.999 ± 0.034	0.939 ± 0.12	1 ± 0.011	0.973 ± 0.046	1.01 ± 0.037	0.964 ± 0.032
UniProt P17706 and related entries	0.943 ± 0.054	0.971 ± 0.017	0.981 ± 0.074	1.017 ± 0.0033	0.989 ± 0.037	1.02 ± 0.04
HSPA9 (UniProt P38646)	1.01 ± 0.013	1.04 ± 0.029	0.934 ± 0.081	1.017 ± 0.01	0.959 ± 0.024	0.969 ± 0.077
UniProt P39687 and related entries	0.98 ± 0.065	1.03 ± 0.081	0.985 ± 0.11	0.927 ± 0.048	0.896 ± 0.06	0.873 ± 0.034

An excerpt of these results, as comma-separated lines:
Target,NP40-soluble protein abundance (concentration: 1mM),NP40-soluble protein abundance (concentration: 2mM),NP40-soluble protein abundance (concentration: 4mM),NP40-soluble protein abundance (concentration: 6mM),NP40-soluble protein abundance (concentration: 8mM),NP40-soluble protein abundance (concentration: 10mM)
POLR2C (UniProt P19387),0.976 ± 0.022,0.95 ± 0.058,0.941 ± 0.042,0.905 ± 0.062,0.882 ± 0.04,0.908 ± 0.065
GRK5 (UniProt P34947),1.02 ± 0.018,1.02 ± 0.068,1.04 ± 0.027,1.01 ± 0.025,1.03 ± 0.045,1.03 ± 0.032
UniProt P29144 and related entries,0.95 ± 0.11,0.889 ± 0.12,0.917 ± 0.12,0.889 ± 0.11,0.925 ± 0.12,0.891 ± 0.14
MYH10 (UniProt P35580),1.16 ± 0.11,1.24 ± 0.11,1.18 ± 0.15,1.17 ± 0.15,1.12 ± 0.15,1.17 ± 0.19
UniProt P17706 and related entries,0.943 ± 0.054,0.971 ± 0.017,0.981 ± 0.074,1.017 ± 0.0033,0.989 ± 0.037,1.02 ± 0.04
